From patent publication US11040085B2, “Pharmaceutical composition containing F1 polypeptide and/or F3 polypeptide and use thereof” (priority 2016, dated 2021)

Tested on: TC-1 cells
Assay: Interaction of FITC-labeled polypeptide with TC-1 cell (flow cytometry, confocal microscopy)
Format: cell-based, mouse
Method: The separated protein was digested by trypsin, polypeptides produced from the digestion was labeled by iTRAQ 4-plex reagents, and the labeled polypeptides were quantitatively analyzed by using a system combining a nano high performance liquid chromatography and a triple time of flight mass spectrometer. […] Besides, the F3 polypeptide and a control polypeptide P3 were labeled by fluorescent dye fluorescein isothiocyanate (FITC), incubated together with TC-1 cells for different periods, and repeatedly washed, thereafter a fluorescence intensity of FITC in the TC-1 cell was detected by a flow cytometry (FIG. 5A).
1000 μL of 5×10^5 TC-1 cells cultured in a RPMI medium containing 10% of calf serum were added into a 24-well cell culture plate, 2 μg/mL of the F3 polypeptide labeled by FITC was added into the cells being incubated, cells at different time points of the incubation were collected and washed with PBS buffer solution, and then the relationship between the F3 polypeptide and TC-1 cell was observed by a flow cytometer (FIG. 5A) or a confocal microscopy (FIG. 5B).

F3 polypeptide: polypeptide of SEQ ID NO: 2, sequence found in tree frog secretion, made by solid phase peptide synthesis; Caerin polypeptide (GLFGVLGSIAKHLLPHVVPVIAEKL; the sequence is synthesized)
combination with the TC-1 cell (2 μg/mL FITC-labeled polypeptide (FIG. 5A, 5B)): can be combined with the TC-1 cell
location in the TC-1 cell (confocal microscopy, incubated together for 1 hour (FIG. 5B)): penetrated through the cytomembrane of the TC-1 cell and distributed non-uniformly in the cytoplasm
